Reference: PubChem BioAssay AID662 (National Center for Advancing Translational Sciences (NCATS), 2007)
The list shows a part of the results. Further columns of the screen follow, without active or inactive calls. Most of these compounds were active or inconclusive in the main read-out, so they are no random draw. Words in brackets tell the shape of the fitted curve; partial curves, single points and poor fits give uncertain potencies.

assay: Cell signaling CRE-BLA (Fsk stim); conditions: CHO CRE-bla reporter (cAMP response element driving beta-lactamase), forskolin EC10, beta-lactamase ratio; measured here: 460 nm blue channel
Method in brief: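 Modulation of forskolin-driven signalling is measured in CHO cells carrying a CRE-controlled beta-lactamase reporter. Cells are stimulated with EC10 NKH 477 in the presence of titrated compound for 3 h at 37 °C, then loaded with CCF4 for 2 h at room temperature.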

| Structure (SMILES) | AC50 |
| --- | --- |
| CCOC(=O)c1c(C)[nH]c(C(=O)CN2CC(C)OC(C)C2)c1C (configuration not stated) | 6.31 µM [rising, partial curve] |
| CCCn1c(=N)c(C(=O)NCC2CCCO2)cc2c(=O)n3cccc(C)c3nc21 (configuration not stated) | 15.8 µM [rising, partial curve] |
| COC(=O)c1[nH]c2cccc(OC)c2c1NC(=O)CN1CCC(C(N)=O)(N2CCCCC2)CC1 | 5.01 µM [falling, single point] |
| C[C@@H](C(=O)NCCc1c[nH]c2ccccc12)[C@H]1C[C@]1(C)[C@H](NC(=O)OCc1ccccc1)c1ccccc1 | 5.01 µM [falling, partial curve] |
| CCOC(=O)C1=C(C)N(C)C(C)=C(C(=O)OCC)C1c1cccnc1 | 12.6 µM [rising, partial curve] |
| O=C(C1CCN(S(=O)(=O)c2cccc3nsnc23)CC1)N1CCn2c1nc1ccccc12 | 0.398 µM [rising, partial curve, poor fit] |
| N#Cc1cc(Cl)c(N2CCOCC2)cc1C#N | 10 µM [rising, single point] |
| O=c1c(-c2cc(F)cc(F)c2)nc2cnc(Oc3ccccc3)nc2n1C1CC1 | 7.94 µM [rising, partial curve] |
| CCOC(=O)c1[nH]c2ccc(OC)cc2c1NC(=O)N1CCOCC1 | 5.01 µM [falling, single point] |
| Cc1c(C(=O)Nc2ccc(F)cc2)oc2ccc(S(=O)(=O)N3CCCC3)cc12 | 3.98 µM [rising, single point] |
| Cc1ccc2nc(N3CCOCC3)c3nncn3c2c1 | 10 µM [rising, partial curve] |
| Cn1cc(-c2nc3cncnc3n(Cc3ccccc3Cl)c2=O)c2ccccc21 | 2 µM [rising, partial curve] |
| C=CCOC(=O)COc1ccc2c(C)c(C)c(=O)oc2c1 | 25.1 µM [rising, single point] |
| N#Cc1ccc(OCC(=O)N2CCN(S(=O)(=O)c3cccs3)CC2)cc1 | 2.51 µM [rising, single point] |
| N/C(=N\c1nc2ccccc2o1)NC(=O)C(Cc1ccccc1)N1C(=O)c2ccccc2C1=O (configuration not stated) | 12.6 µM [falling, partial curve] |
| Cc1cc(C)c2cc(C#N)c(NCCCNC(=O)CCC(=O)O)nc2c1 | 3.98 µM [falling, single point] |
| CCn1c(=O)c(C(=O)NCc2ccc(OC)cc2)c(O)c2ccccc21 | 1.58 µM [rising, partial curve] |
| CCOC(=O)N1CCN(C(=O)c2ccc(CNS(=O)(=O)c3ccc(C)cc3)cc2)CC1 | 25.1 µM [falling, single point] |
| CCOc1ccc2[nH]c(=O)c(CN(CC3CCCN3CC)C(=O)NCc3ccccc3)cc2c1 (configuration not stated) | 3.16 µM [rising, single point] |
| O=C(NCc1cccs1)C1CCCN(S(=O)(=O)c2cccs2)C1 (configuration not stated) | 0.158 µM [falling, full curve] |
| COC(=O)c1cc(Br)c(=O)n(CCN2CCOCC2)c1 | 25.1 µM [rising, single point] |
| COc1cccc(Nc2ncc3nc(-c4ccc(F)cc4)c(=O)n(C)c3n2)c1 | 2.51 µM [rising, full curve] |
| O=C(CCC1COc2ccccc2O1)Nc1ccccn1 (configuration not stated) | 10 µM [rising, partial curve] |

Quoted at random: 3 entries already listed, in no set order.

| Structure (SMILES) | AC50 |
| --- | --- |
| Cn1cc(-c2nc3cncnc3n(Cc3ccccc3Cl)c2=O)c2ccccc21 | 2 µM [rising, partial curve] |
| CCn1c(=O)c(C(=O)NCc2ccc(OC)cc2)c(O)c2ccccc21 | 1.58 µM [rising, partial curve] |
| O=c1c(-c2cc(F)cc(F)c2)nc2cnc(Oc3ccccc3)nc2n1C1CC1 | 7.94 µM [rising, partial curve] |

Remaining list, next part:

| Structure (SMILES) | AC50 |
| --- | --- |
| COc1ccc(CCNS(=O)(=O)c2cccc3nsnc23)cc1OC | 25.1 µM [rising, single point] |
| COc1ccc(-n2c(=O)c(-c3cccs3)nc3cnc(N4CCOCC4)nc32)cc1 | 5.01 µM [rising, partial curve] |
| COc1ccc(OC)c(-c2cc(C(=O)N3CCN(c4ncccn4)CC3)c3ccccc3n2)c1 | 10 µM [rising, single point] |
| Cc1cnc(NC(=O)CCCSc2nc3ccccc3s2)s1 | 7.94 µM [rising, partial curve, poor fit] |
| O=C(CCCc1nc2ccccc2s1)N1CCN(S(=O)(=O)c2cccs2)CC1 | 10 µM [rising, single point] |
| COc1ncc2nc(-c3cccs3)c(=O)n(-c3ccccc3)c2n1 | 5.01 µM [rising, partial curve] |
| COc1ccc(C(=O)NCCSCc2ccco2)cc1OC | 0.00316 µM [falling, full curve, poor fit] |
| COc1cccc(C(CC(=O)NCc2ccco2)NS(=O)(=O)c2ccc(C)cc2)c1OC (configuration not stated) | 3.98 µM [falling, partial curve] |
| COc1ccc2nc(SCC(=O)N3CCCCCC3)c(C#N)cc2c1 | 10 µM [rising, single point] |
| O=C(NCC1COc2ccccc2O1)c1c[nH]c2ccc(S(=O)(=O)N3CCOCC3)cc2c1=O (configuration not stated) | 3.16 µM [rising, single point] |
| O=C(Nc1ccc2c(c1)OCO2)C1CCCN(S(=O)(=O)Cc2ccccc2)C1 (configuration not stated) | 20 µM [falling, single point] |
| COc1cc(C(=O)OCC(=O)N(C)Cc2ccccc2)cc(OC)c1OC | 3.98 µM [rising, single point] |
| CCCSc1nc2c(cnn2-c2ccc(Cl)cc2)c(=O)[nH]1 | 0.00794 µM [falling, full curve, poor fit] |
| Brc1ccccc1-c1nnc(COc2ncnc3c2cnn3-c2ccccc2)o1 | 12.6 µM [rising, single point] |
| N#Cc1ccc(COc2ccc(CCO)cc2-n2nc3ccccc3n2)cc1 | 7.94 µM [rising, partial curve] |
| c1ccc2c(-c3nc4ncccc4o3)cccc2c1 | 25.1 µM [rising, single point] |
| Cc1cc(NC2C3CC4CC(C3)CC2C4)n2ncnc2n1 (configuration not stated) | 3.98 µM [rising, full curve] |
| Cc1c(C2CCN(CCc3ccccc3)CC2)noc1-c1ccc(Cl)cc1 | 12.6 µM [falling, partial curve, poor fit] |
| Cc1ccc(CNC(=O)[C@H](C)[C@H]2C[C@]2(C)[C@H](NC(=O)OCc2ccccc2)c2ccccc2)o1 | 12.6 µM [falling, single point] |
| CCN1C(=O)C(O)(C2COC(C)(C)CC2=O)c2cc(Br)ccc21 (configuration not stated) | 12.6 µM [rising, single point] |
| CCOC(=O)N1CCC(N2CCN(c3cc(C)ccc3C)CC2)CC1 | 0.00316 µM [falling, full curve, poor fit] |
| CCCCOc1ccc(-c2nc(-c3cccnc3)no2)cc1 | 0.316 µM [falling, partial curve] |
| Cc1sc2nc(C(C)Nc3ccccc3N3CCOCC3)[nH]c(=O)c2c1C (configuration not stated) | 7.94 µM [rising, partial curve] |

| Structure (SMILES) | AC50 |
| --- | --- |
| Cn1c(SCc2ccccc2)nnc1-c1ccncc1 | 25.1 µM [falling, single point] |
| CCOC(=O)c1c(CC(C)C)csc1NC=O | 10 µM [rising, partial curve] |
| Cn1cc(C(=O)c2ccccc2)cc1-c1nc2ccccc2n1C | 12.6 µM [rising, partial curve] |
| COc1cc(-c2nnc3sc(-c4cccs4)nn23)cc(OC)c1OC | 3.16 µM [rising, partial curve] |
| C=CCn1cc(C(=O)NCc2ccco2)c(=O)c2cc(S(=O)(=O)N3CCCCCC3)ccc21 | 2.51 µM [rising, partial curve] |
| CCc1c(C(=O)NCCc2ccc(OC)c(OC)c2)[nH]c(C)c1C(C)=O | 6.31 µM [rising, partial curve] |
| Cc1nnc(Nc2ccc3c(c2)OCO3)c2ccccc12 | 0.631 µM [falling, full curve, poor fit] |
| Cc1noc(C)c1-c1cncnc1NCc1ccccc1 | 3.98 µM [rising, single point] |
| c1cncc(-c2cc(NCc3cccs3)ncn2)c1 | 12.6 µM [rising, partial curve] |
| CCOC(=O)c1[nH]c(C)c(C(=O)OCC(=O)NC(=O)NC(C)(C)C)c1C | 0.501 µM [falling, partial curve] |
| COCCCNC(=O)c1ccc(N2CCCC2)c(NS(=O)(=O)c2ccc(C)cc2)c1 | 25.1 µM [rising, single point] |
| CCCCn1nc(C(=O)N2CCc3ccccc32)c2ccccc2c1=O | 12.6 µM [rising, partial curve] |
| CN1CCc2c(sc3c2c(NCc2ccco2)nc2nnnn23)C1 | 25.1 µM [rising, single point] |
| COc1ccccc1CCn1c(=O)c(CCc2ccccc2)nc2cncnc21 | 10 µM [rising, partial curve] |
| COc1ccc(-c2nc(CSCC(=O)NCc3ccco3)c(C)o2)cc1 | 0.01 µM [falling, full curve, poor fit] |
| Cc1cc(C)n(-c2nc3ccccc3nc2Nc2ccc3c(c2)OCO3)n1 | 3.16 µM [rising, partial curve] |
| N#Cc1nc(-c2ccco2)oc1NCc1cccnc1 | 25.1 µM [rising, single point] |
| COc1ccc2cc(CN(C(=O)Nc3ccccc3)C3CCCC3)c(=O)[nH]c2c1 | 25.1 µM [rising, single point] |
| Cc1ccccc1-c1cc(N2CCN(C)CC2)ncn1 | 5.01 µM [rising, single point] |
| O=C(Cn1cnc2c(cnn2-c2ccc(F)cc2)c1=O)NCc1ccco1 | 3.16 µM [rising, partial curve] |
| CCCCNC(=O)COC(=O)c1cc2c(C)nn(-c3ccccc3)c2s1 | 2 µM [rising, single point] |

Some of the entries so far, as tab-separated lines:
Structure (SMILES)	AC50
CCCn1c(=N)c(C(=O)NCC2CCCO2)cc2c(=O)n3cccc(C)c3nc21 (configuration not stated)	15.8 µM [rising, partial curve]
CCOC(=O)N1CCC(N2CCN(c3cc(C)ccc3C)CC2)CC1	0.00316 µM [falling, full curve, poor fit]
